Measurements from “University of Dundee, Small-Polar-MMV Screening Library” (2021), ChEMBL document CHEMBL3988442.

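Whole-cell assay for inhibitors of Mycobacterium tuberculosis growth, labelled Cornell in the record; the read-out is not stated. The concentration is filed as 10 mM, unlikely as a test dose, so the dose is not known. Higher means stronger inhibition (inferred from two other growth screens of the library). Of about 53,000 compounds tested this way, about 900 (1.7%) reached 50% or more in at least one test.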

Values are the deposited “Percent Effect”, in %.
The record does not define 0% and 100%; most values in the screen are far below 50% and negative numbers occur (in some assays of this library far below -100).
The compounds are a random part of those screened.

{"structure": "Cc1cnc2c(c1NCc1cccnc1)c(=O)n(C)c(=O)n2C", "effect": -21.16}
{"structure": "COc1cccc(CN(C)C(=O)NCc2c(C)cc(C)[nH]c2=O)c1", "effect": -4.291}
{"structure": "Cc1ccc(C(=O)N2CCN(Cc3cccs3)CC2)n1C", "effect": 1.139}
{"structure": "Cc1csc(C2CCCN(C(=O)c3cnc4n[nH]c(C)c4c3)C2)n1", "stereo": "stereo not shown", "effect": 12.21}
{"structure": "CNC(=O)c1nc(COc2c(C)occc2=O)no1", "effect": -32.81}
{"structure": "CN(Cc1ccsc1)C(=O)CN1CCOC(Cn2cccn2)C1", "stereo": "stereo not shown", "effect": 0.2981}
{"structure": "O=C(CCn1cncn1)N1CCC2(CC1)[C@H](O)C[C@@H]2OCCO", "effect": -5.449}
{"structure": "Cc1cccc(NC2CCN(C(=O)Nc3cc(C)on3)CC2)n1", "effect": -41.3}
{"structure": "CCN(CCOC)C(=O)c1cc(COc2ccc3c(c2)CCCC3)on1", "effect": 36.57}
{"structure": "[H][C@@]12CO[C@@H](CNS(C)(=O)=O)[C@]1([H])CCN(c1cccc(C)n1)C2", "effect": -7.324}
{"structure": "Cc1nc(N2CCCC2C(=O)NC(C)(C)CO)nc2ccccc12", "stereo": "stereo not shown", "effect": 25.07}
{"structure": "Cn1cnc(-c2ccc(F)cc2)c1NC(=O)CCNC(=O)C(C)(C)C", "effect": 4.162}
{"structure": "Cn1c(CC(=O)O)c(Sc2ccccc2)c2ccccc21", "effect": 3.544}
{"structure": "CN(Cc1nnc2ccccn12)C(=O)CCC1CCCC1", "effect": 3.902}
{"structure": "Cc1ccc(C(=O)N(C)Cc2c(C)noc2C)c(=O)[nH]1", "effect": -29.32}
{"structure": "CCS(=O)(=O)NCCNc1c(C#N)cnc2c(C)cc(F)cc12", "effect": 11.04}
{"structure": "Cc1cc(C(=O)NCCN2CCC(C)CC2)nn1C(C)(C)C", "effect": -12.72}
{"structure": "CC(NS(=O)(=O)CC1(C#N)CCCC1)c1cccc(-n2cccn2)c1", "stereo": "stereo not shown", "effect": 6.508}
{"structure": "CCc1ccc(CN2CCC(c3ccccc3C(=O)O)C2)nc1", "stereo": "stereo not shown", "effect": 25.67}
{"structure": "Cc1cnc(CN2CCCCC2c2nc(-c3ccccc3)no2)cn1", "stereo": "stereo not shown", "effect": 9.344}
{"structure": "O=C(O)C(F)(F)F.[H][C@@]12CN(C(=O)C3CCOC3)C[C@]1([H])C(=O)N(Cc1ccncc1)C2", "stereo": "stereo partly shown", "effect": -5.893}
{"structure": "CC(C)NC(=O)N1CCC2(CCC(=O)N2CCN(C)C)CC1.O=C(O)C(F)(F)F", "effect": 23.66}
{"structure": "CC(C1CCN(Cc2cccc(OC(F)F)c2)CC1)N1CCOCC1", "stereo": "stereo not shown", "effect": 6.86}
{"structure": "Cc1noc(C)c1CN1C[C@@H](C(=O)O)[C@H](c2ccccn2)C1", "effect": 12.44}
{"structure": "COCCCN(Cc1ccncc1)c1ncc(C#N)cc1Cl", "effect": 15.37}
{"structure": "COCc1nc2cc(NCc3ccc(CO)o3)ccc2o1", "effect": 97.16}
{"structure": "CCc1nc(CNC2CCCc3c2cnn3CC)cs1", "stereo": "stereo not shown", "effect": -9.033}
{"structure": "COCCC(=O)N1CCCCC1c1ccc(F)cc1", "stereo": "stereo not shown", "effect": 25.01}
{"structure": "CCN1C(=O)CC(c2ccccc2)C12CCN(CC1CCOCC1)CC2.O=C(O)C(F)(F)F", "stereo": "stereo not shown", "effect": 9.334}
{"structure": "CCn1c(CN2CCOC(Cn3cncn3)C2)nc2cc(F)ccc21", "stereo": "stereo not shown", "effect": 26.57}
{"structure": "CNC(=O)c1c[nH]nc1C1CCCN1c1ncccn1", "stereo": "stereo not shown", "effect": 27.39}
{"structure": "CCn1cc(Cl)c(C(=O)Nc2ccc3c(c2)C(C)(C)C(=O)N3C)n1", "effect": 24.72}
{"structure": "CN(C)C1Cc2ccccc2N(S(=O)(=O)c2ccc(C#N)cc2)C1", "stereo": "stereo not shown", "effect": 12.67}
{"structure": "[H][C@@]12CCN(C(=O)N(C)C)[C@]1([H])CC[C@@H](C(=O)NC)O2", "effect": 12.43}
{"structure": "CCC(O)Cn1nc(CCSC)nc1-c1ccc2c(c1)OCCO2", "stereo": "stereo not shown", "effect": -8.107}
{"structure": "CC(=O)Nc1cc(CN(C)C)ccc1C", "effect": 11.17}
{"structure": "CS(=O)(=O)c1cn[nH]c1C1CCCCN1C(=O)c1cncs1", "stereo": "stereo not shown", "effect": -10.78}

For reference, 4 entries once more:

| structure | effect |
|---|---|
| `CCN(CCOC)C(=O)c1cc(COc2ccc3c(c2)CCCC3)on1` | 36.57 |
| `Cc1ccc(C(=O)N(C)Cc2c(C)noc2C)c(=O)[nH]1` | -29.32 |
| `CCC(O)Cn1nc(CCSC)nc1-c1ccc2c(c1)OCCO2` (stereo not shown) | -8.107 |
| `COCc1nc2cc(NCc3ccc(CO)o3)ccc2o1` | 97.16 |